Data taken from patent US20260063643A1.
Results are given in words; binding and its absence hold for the method and conditions named. Some binding calls cover weakened binding; strength is not graded here.

Target: T1, human RANKL (soluble) (human) (UniProt O14788)
T1 sequence: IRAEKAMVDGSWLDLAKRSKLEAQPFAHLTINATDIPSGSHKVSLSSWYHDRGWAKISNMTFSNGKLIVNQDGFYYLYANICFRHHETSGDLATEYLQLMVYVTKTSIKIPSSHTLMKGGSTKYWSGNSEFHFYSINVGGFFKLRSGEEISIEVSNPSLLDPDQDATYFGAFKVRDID
Assay: MSD bridging ECL assay on Study A serum samples treated with OPG

- binding: binds
B1: osteoprotegerin (OPG) (receptor)
chain: ETFPPKYLHYDEETSHQLLCDKCPPGTYLKQHCTAKWKTVCAPCPDHYYTDSWHTSDECLYCSPVCKELQYVKQECNRTHNRVCECKEGRYLEIEFCLKHRSCPPGFGVVQAGTPERNTVCKRCPDGFFSNETSSKAPCRKHTNCSVFGLLLTQKGNATHDNICSGNSESTQKCGIDVTLCEEAFFRFAVPTKFTPNWLSVLVDNLPGTKVNAESVERIKRQHSSQEQTFQLLKLWKHQNKDQDIVKKIIQDIDLCENSVQRHIGHANLTFEQLRSLMESLPGKKVGAEDIEKTIKACKPSDQILKLLSLWRIKNGDQDTLKGLMHALKHSKTYHFPKTVTQSLKKTIRFLHSFTMYKLYQKLFLEMIGNQVQSVKISCL
